Laboratory results taken from PubChem BioAssay AID330 (DTP/NCI, 2004).
The list shows only some results of the screen, not a fair sample: it is rich in T/C values a quarter to a half above the control, in often repeated tests (any T/C) and in doses without a T/C. Further doses and runs are listed elsewhere. T/C gives the treated animals as a percentage of the vehicle group. Some doses have a count of surviving animals in place of a T/C: the source files T/C as zero there, which appears to mark a toxic dose or a test without result, not a measured value. Some survivor counts are full or nearly so, which does not show that the dose was tolerated: the source hardly ever lists a survival T/C far under the control, and the zero likely stands for such cases as well. Counts of survivors are from the toxicity check (mostly the fifth day) where no day follows; animals may have died later. Schedules are NCI's codes, taken here to give the interval after Q, in days (D) or hours (H), and the number of doses after X. Some entries were tested several times; the values are given in rising order. Some structures stand for samples that the source files as different forms (salt, stereo form or complex); doses refer to the form tested. For survival time, this PubChem deposit counts one and a half times the control or more as active, and values a quarter to a half above the control carry no call in these data; other NCI protocols may use other cut-offs. Some T/C values are followed by the survivors on the day toxicity was checked, most often the fifth; without a count, all were alive then.

Tested on: P388 leukemia ip, CD2F1 mice, survival T/C
Assay: NCI In Vivo Anticancer Drug Screen. Data for tumor model P388 Leukemia (intraperitoneal) in CD2F1 (CDF1) mice
Conditions: T/C endpoint: median survival time, higher T/C = longer survival
[1] = dose: 100.0 mg/kg/injection, schedule: Q04DX003 (ip), vehicle: saline with Tween-80
[2] = dose: 200.0 mg/kg/injection, schedule: Q04DX003 (ip), vehicle: saline with Tween-80
[3] = dose: 400.0 mg/kg/injection, schedule: Q04DX003 (ip), vehicle: saline with Tween-80
[4] = dose: 100.0 mg/kg/injection, schedule: Q01DX005 (ip), vehicle: Klucel (hydroxypropylcellulose) (HPC)
[5] = dose: 200.0 mg/kg/injection, schedule: Q01DX005 (ip), vehicle: Klucel (hydroxypropylcellulose) (HPC)
[6] = dose: 200.0 mg/kg/injection, schedule: Q01DX001 (ip), vehicle: saline with Tween-80
[7] = dose: 400.0 mg/kg/injection, schedule: Q01DX001 (ip), vehicle: saline with Tween-80
[8] = dose: 50.0 mg/kg/injection, schedule: Q01DX005 (ip), vehicle: saline with Tween-80
[9] = dose: 100.0 mg/kg/injection, schedule: Q01DX005 (ip), vehicle: saline with Tween-80
[10] = dose: 200.0 mg/kg/injection, schedule: Q01DX005 (ip), vehicle: saline with Tween-80
[11] = dose: 100.0 mg/kg/injection, schedule: Q01DX009 (ip), vehicle: saline with Tween-80
[12] = dose: 25.0 mg/kg/injection, schedule: Q01DX009 (ip), vehicle: saline with Tween-80
[13] = dose: 200.0 mg/kg/injection, schedule: Q01DX009 (ip), vehicle: saline
[14] = dose: 100.0 mg/kg/injection, schedule: Q04DX002 (ip), vehicle: saline with Tween-80

CN(C)CCC[Si]1(C)c2ccccc2CCc2ccccc21
survivor count [1]: 0 of 6
survivor count [2]: 0 of 6
survivor count [3]: 0 of 6

Cc1cc(=O)[nH]c2ccc3ccccc3c12
survivor count (dose: 50.0 mg/kg/injection, schedule: Q01DX005 (ip), vehicle: Klucel (hydroxypropylcellulose) (HPC)): 5 of 5
survivor count [4]: 5 of 5
survivor count [5]: 5 of 5

O=C1OC2(CCCCC2)OC(=O)C1=Cc1ccc([N+](=O)[O-])s1
survivor count [3]: 0 of 6

C[n+]1ccc(-c2nc(-c3cc[n+](C)cc3)nc(-c3cc[n+](C)cc3)n2)cc1
survivor count (dose: 100.0 mg/kg/injection, schedule: Q01DX001 (ip), vehicle: saline with Tween-80): 3 of 6
survivor count [6]: 0 of 6
survivor count [7]: 0 of 6

OCCNCO
T/C (dose: 60.0 mg/kg/injection, schedule: Q01DX005 (ip), vehicle: saline): 125 and 136 % of control [5 of 6 alive]
T/C (dose: 120.0 mg/kg/injection, schedule: Q01DX005 (ip), vehicle: saline): 137 and 137 % of control [5 of 6 alive]
T/C (dose: 240.0 mg/kg/injection, schedule: Q01DX005 (ip), vehicle: saline): 128 [5 of 6 alive] and 140 % of control
survivor count (dose: 400.0 mg/kg/injection, schedule: Q01DX005 (ip), vehicle: saline): 5 of 6

O=C(CCN1CC1)Nc1ccc(NC(=O)CCN2CC2)cc1
T/C (dose: 2.5 mg/kg/injection, schedule: Q04DX003 (ip), vehicle: Klucel (hydroxypropylcellulose) (HPC)): 141 % of control
T/C (dose: 5.0 mg/kg/injection, schedule: Q04DX003 (ip), vehicle: Klucel (hydroxypropylcellulose) (HPC)): 141 % of control
survivor count (dose: 40.0 mg/kg/injection, schedule: Q04DX003 (ip), vehicle: Klucel (hydroxypropylcellulose) (HPC)): 2 of 6

Cc1cc(C(=O)Nc2ccc(NC3=NCCN3)cc2)cc(C(=O)Nc2ccc(NC3=NCCN3)cc2)c1
survivor count [8]: 0 of 6
survivor count [9]: 0 of 6
survivor count [10]: 0 of 6

COc1ccc2cc1Oc1ccc(cc1)CC1c3c(cc(OC)c(OC)c3Oc3cc4c(cc3OC)CCN(C)C4C2)CCN1C (stereo not drawn)
survivor count [7]: 0 of 6

CC(C)(C)C(=O)Oc1cc2c(cc1OC(=O)C(C)(C)C)C(c1ccccc1)CNCC2 (stereo not drawn)
survivor count [11]: 3 of 6

CCOC(=O)c1cc2c(ccc3ccccc32)[nH]1
survivor count (dose: 240.0 mg/kg/injection, schedule: Q01DX005 (ip), vehicle: saline with Tween-80): 1 of 6

CC(=O)Oc1cccnc1C(C#N)C#N
survivor count [8]: 4 of 6

COC(=O)NC1=Nc2ccc(Cl)cc2NS1
survivor count [4]: 3 of 5
survivor count [5]: 0 of 5

CCN(CC)CCC(=O)c1ccccc1
survivor count [12]: 5 of 6
T/C (dose: 50.0 mg/kg/injection, schedule: Q01DX009 (ip), vehicle: saline): 127 % of control
survivor count (dose: 100.0 mg/kg/injection, schedule: Q01DX009 (ip), vehicle: saline): 0 of 6 and 2 of 6
survivor count [13]: 0 of 6

CN(C)c1ccc(N=Nc2ccc3cc4ccccc4cc3c2)cc1
survivor count [1]: 1 of 6 and 3 of 6
survivor count [2]: 2 of 6
survivor count [3]: 0 of 6

NC(CCC(=O)NC(CS)C(=O)O)C(=O)O (stereo not drawn)
survivor count [13]: 0 of 6

COc1ccc(C=C2C(=O)C=CC2=O)cc1
survivor count (dose: 25.0 mg/kg/injection, schedule: Q04DX002 (ip), vehicle: saline with Tween-80): 0 of 6
survivor count (dose: 50.0 mg/kg/injection, schedule: Q04DX002 (ip), vehicle: saline with Tween-80): 1 of 6
survivor count [14]: 0 of 6

Cc1cccc(/C=N/NC(N)=S)n1
survivor count [14]: 3 of 6
survivor count (dose: 200.0 mg/kg/injection, schedule: Q04DX002 (ip), vehicle: saline with Tween-80): 0 of 6
survivor count (dose: 400.0 mg/kg/injection, schedule: Q04DX002 (ip), vehicle: saline with Tween-80): 0 of 6

CC(=O)NC1=C(Cl)C(=O)c2ccccc2C1=O
survivor count (dose: 12.5 mg/kg/injection, schedule: Q01DX009 (ip), vehicle: Klucel (hydroxypropylcellulose) (HPC)): 6 of 6
survivor count (dose: 25.0 mg/kg/injection, schedule: Q01DX009 (ip), vehicle: Klucel (hydroxypropylcellulose) (HPC)): 6 of 6
survivor count (dose: 50.0 mg/kg/injection, schedule: Q01DX009 (ip), vehicle: Klucel (hydroxypropylcellulose) (HPC)): 0 of 6

Nc1nnn(/N=C\c2ccccc2)n1
survivor count [5]: 5 of 5

O=NN(Cc1ccc(Cl)cc1)C(C(=O)O)c1ccccc1 (stereo not drawn)
survivor count (dose: 240.0 mg/kg/injection, schedule: Q01DX005 (ip), vehicle: Klucel + Tween-80): 6 of 6

C=CCOC(CCC)OCC=C
survivor count (dose: 200.0 mg/kg/injection, schedule: Q01DX009 (ip), vehicle: Klucel (hydroxypropylcellulose) (HPC)): 0 of 6

COC(=O)Nc1nc2ccc(C(=O)OC(C)C)cc2[nH]1
T/C [2]: 132 % of control
T/C [3]: 144 and 148 % of control

Cc1c2ccccc2c(C)c2c1cc(C(=O)O)c1ccccc12
T/C [9]: 130 and 131 % of control
T/C [10]: 131 % of control [5 of 6 alive]

COc1ccc(CCN(C=O)CCc2ccc(OC)c(OC)c2)cc1OC
survivor count (dose: 50.0 mg/kg/injection, schedule: Q01DX009 (ip), vehicle: other): 6 of 6

Cc1ccc(NC(=S)N2CCCC2)cc1C
survivor count (dose: 100.0 mg/kg/injection, schedule: Q01DX009 (ip), vehicle: Klucel (hydroxypropylcellulose) (HPC)): 6 of 6

[Cu+2].[NH-]CC1CCCC[N-]1.[NH-]CC1CCCC[N-]1.[O-][Cl+3]([O-])([O-])O (stereo not drawn)
survivor count [12]: 1 of 6
survivor count (dose: 50.0 mg/kg/injection, schedule: Q01DX009 (ip), vehicle: saline with Tween-80): 0 of 6
survivor count [11]: 0 of 6
survivor count (dose: 200.0 mg/kg/injection, schedule: Q01DX009 (ip), vehicle: saline with Tween-80): 0 of 6

COCCOc1cccc2c1C(=O)c1ccccc1C2=O
survivor count [10]: 5 of 5

CN(C)N=Nc1cccc(Cl)c1
T/C (dose: 100.0 mg/kg/injection, schedule: Q01DX009 (ip), vehicle: saline + alcohol): 129 % of control
survivor count (dose: 200.0 mg/kg/injection, schedule: Q01DX009 (ip), vehicle: saline + alcohol): 0 of 6

C#CCN(C)Cc1cc(OC)c(OC)c(OC)c1
survivor count (dose: 25.0 mg/kg/injection, schedule: Q01DX009 (ip), vehicle: saline): 6 of 6
survivor count [13]: 6 of 6

Cn1c2ccc([N+](=O)[O-])cc2c(=O)c2c(O)cc3c(c21)C=CC(C)(C)O3
survivor count [6]: 6 of 6
survivor count [7]: 6 of 6

COc1cc2c(c(OC)c1O)-c1ccc(OC)c(=O)cc1[C@@H](NC(=O)C(F)(F)F)CC2
T/C (dose: 1.25 mg/kg/injection, schedule: Q01DX005 (ip), vehicle: Klucel (hydroxypropylcellulose) (HPC)): 131 % of control
T/C (dose: 1.25 mg/kg/injection, schedule: Q01DX009 (ip), vehicle: Klucel (hydroxypropylcellulose) (HPC)): 132 % of control
T/C (dose: 2.5 mg/kg/injection, schedule: Q01DX005 (ip), vehicle: Klucel (hydroxypropylcellulose) (HPC)): 146 % of control
T/C (dose: 2.5 mg/kg/injection, schedule: Q01DX009 (ip), vehicle: Klucel (hydroxypropylcellulose) (HPC)): 149 % of control
survivor count (dose: 10.0 mg/kg/injection, schedule: Q01DX009 (ip), vehicle: Klucel (hydroxypropylcellulose) (HPC)): 3 of 6
survivor count (dose: 20.0 mg/kg/injection, schedule: Q01DX005 (ip), vehicle: Klucel (hydroxypropylcellulose) (HPC)): 5 of 6
survivor count (dose: 20.0 mg/kg/injection, schedule: Q01DX009 (ip), vehicle: Klucel (hydroxypropylcellulose) (HPC)): 3 of 6 and 5 of 6
survivor count (dose: 40.0 mg/kg/injection, schedule: Q01DX009 (ip), vehicle: Klucel (hydroxypropylcellulose) (HPC)): 6 of 6

C#CC(C)(C)Oc1ccc2c(=O)c(-c3ccc(OC)cc3)coc2c1
survivor count [10]: 6 of 6

Clc1ncnc2ccccc12
survivor count [10]: 5 of 6
